The text below walks through data of paper PMC5996148.

This is one part of the list.

Holding throughout (test): protein microarray (ProtoArray v5.0), streptavidin-Alexa Fluor 647
What all share (details): 3'-biotin; 20 mM Tris (pH 7.5), 5 mM MgCl2, 100 mM KCl, 0.1% Tween-20, A/T-rich and random oligonucleotide blockers; temperature not stated; high values mean tight binding

For assay [1], the system named is Protein ARMCX6 (human).
In assay [2] the test system is Protein BEAN (human).
Assay [3] has as its system Protein BEX5 (human).
Assay [4] relates to Protein DDI1 homolog 1 (human).
Assay [5] has as its system Protein DGCR6L (human).
Assay [6] has as its system Protein Dom3Z (human).
Assay [7] relates to Protein Dr1 (human).
The test system of assay [8] is Protein FAM131B (human).
Assay [9] relates to Protein FAM151A (human).
Assay [10] deals with Protein FAM178B (human).

As for “GGGAGGCTGAGGCAGG [G4-1 biotinylated (PQS2)]”, the binding signal in assay [1] is -0.282 z-score; in [2], -0.346 z-score; in [3], -0.358 z-score; in assay [4], -0.341 z-score; in assay [5], -0.351 z-score; in assay [6], -0.321 z-score. Moreover, the binding signal is -0.376 z-score in assay [7], -0.247 z-score in assay [8], -0.312 z-score in assay [9] and -0.306 z-score in assay [10].
